Assay results published in PubChem BioAssay AID1347423 (Functional Genomics Laboratory (NCATS/FGL), 2020).
The campaign covered roughly 52,000 sequences. About 210 (0.4%) were called active.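 Rule for the calls: active = gene whose silencing raises cell survival under the drug, median off-target-corrected z-score across its silencing RNAs 2 or more; inactive = the rest.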 Some of the results follow.

Assay: Resistance to Poly (ADP-Ribose) Polymerase inhibitor: Gene Identification via Genome-wide siRNA Screen
Details: mouse BRCA2 R2336H ES cells, olaparib, CellTiter-Glo viability; hits give high values
Summary of the method: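 Genome-wide siRNA screen (3 siRNAs/gene, 20 nM) in mouse ES cells carrying hypomorphic BRCA2 R2336H; olaparib 500 nM added 48 h post-transfection, CellTiter-Glo viability 72 h later. Normalized to plate-median negative control; MAD z-scores, gene median, seed-adjusted.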

Question: For GGGUCCAUUGUCAAUGUCUTT against Cbr2, which z-score is on record?
Answer: inactive: -0.721

Question: With “UGGCUGCCCACACCUUUAATT against 9130416N05Rik” as the sequence, how does the z-score read?
Answer: inactive: -1.13

Question: For “CCGUUUCUUUCCAUGAUAATT against D6Ertd245e”, which z-score is on record?
Answer: inactive: 1.17

Question: Which z-score does the source give for CGCCGAAAGACAAGAGUAUTT against Tgm3 here?
Answer: inactive: -1.15

Question: With GACCGUCACCGCUAUGGAUTT against Hist2h4 as the sequence, how does the z-score read?
Answer: inactive: -1.19

Question: For GCAGAUCUAUCCUAGCCGGTT against Sui1-rs1, which z-score is on record?
Answer: inactive: 1.95

Question: For GGAGAACAUAAAAAUGGUGTT against Stk39, which z-score is on record?
Answer: inactive: -0.152

Question: For “GGUGGAACACAAUGGAUGCTT against A830006F12Rik”, which z-score is on record?
Answer: inactive: -0.903

Question: Which z-score does the source give for GGAAGAUCCAUUAUUUACUTT against AI450540 here?
Answer: inactive: -0.165

Question: Which z-score does the source give for GGUUACCAAGCCUAAGACCTT against Hist1h1b here?
Answer: inactive: -0.915

Question: For CCAAUUCGUGUUAAGGAACTT against Mina, which z-score is on record?
Answer: inactive: -1.35

Question: For “CCCAGGAUUCUACUAGAUUTT against 9130207N01”, which z-score is on record?
Answer: inactive: 0.699

Question: For GGACUUCAUGGAAAAUCUGTT against Pofut1, which z-score is on record?
Answer: inactive: 0.182

Question: With GGCCUUCGAAAUAAUUCUGTT against Ppp1r14d as the sequence, how does the z-score read?
Answer: inactive: -0.233

Question: With “GGAAUGACUCUAGAAAUGATT against 3110050K21Rik” as the sequence, how does the z-score read?
Answer: inactive: -0.684

Question: For GCAUCGUCUAUAUUUUUGGTT against Timm50, which z-score is on record?
Answer: inactive: 0.16

Question: For “GGUUCUUAGCCUUAACCAUTT against 9130422G05Rik”, which z-score is on record?
Answer: inactive: -1.02

Question: Which z-score does the source give for GGACAUAAAAAUACGCCAGTT against Hsf1 here?
Answer: inactive: 3.22

Question: For GCAUGGAGAUUCUGUGCGGTT against Trim45, which z-score is on record?
Answer: inactive: -0.0509

Question: Which z-score does the source give for CCUUCUUUUACCGUCUCAATT against Gpr31c here?
Answer: inactive: -0.574

Question: Which z-score does the source give for “CGAGUUAGUUUUUCUGGGCTT against 4833401D15Rik” here?
Answer: inactive: 0.645

Question: With GCCUCAUUUAUCAUGCGCGTT against BC023179 as the sequence, how does the z-score read?
Answer: inactive: -0.404

Question: Which z-score does the source give for GGAUUUGUCUUCUUUUGUCTT against Kif3b here?
Answer: inactive: 1.59

Question: Which z-score does the source give for “GGCAAAAAUCAUUGUCAUUTT against C330018K18Rik” here?
Answer: inactive: -0.0885

Question: Which z-score does the source give for “GGAUAUGUACAGGAGCUAUTT against 1100001D10Rik” here?
Answer: inactive: -0.224

Question: Which z-score does the source give for GGCACAGAGAACAAUACUUTT against Npy5r here?
Answer: inactive: -0.556

Question: For GGAAUUUGCUGAAUUGCUCTT against Ophn1, which z-score is on record?
Answer: inactive: -0.28

Question: For CCCUUUCAACCAUUAAGCUTT against Kcns2, which z-score is on record?
Answer: inactive: 2.36

Question: For GCAUGACGGUGUUAACUACTT against Jam3, which z-score is on record?
Answer: inactive: 0.45

Question: Which z-score does the source give for “GAUAAUUUGCACAUCCUCUTT against G630049C14Rik” here?
Answer: inactive: 1.4

Question: For GGCUCGGUAUCGUUUUUCATT against Arl3, which z-score is on record?
Answer: inactive: -0.411

Question: For CCUGUCCUGAUGGUGAAACTT against LOC381286, which z-score is on record?
Answer: inactive: -0.393

Question: With “GGAAUUCAUGAACUACUAUTT against 1700028N11Rik” as the sequence, how does the z-score read?
Answer: inactive: 0.136

Question: With CCAUCAUAUCAGACCCUGGTT against Olfr733 as the sequence, how does the z-score read?
Answer: inactive: -3.5

Question: With GCUACGUUCGAUAUGGGUGTT against H2-Tw3 as the sequence, how does the z-score read?
Answer: inactive: -0.57

Question: Which z-score does the source give for CCCAGCACAUGCUAUCUCUTT against Zfp295 here?
Answer: inactive: -0.42

Question: Which z-score does the source give for “CCCUAAACCUCUUUCAACATT against A530083I02Rik” here?
Answer: inactive: 0.136

Question: Which z-score does the source give for GGCCAUUUCUUUCAUAGAUTT against Dusp6 here?
Answer: inactive: 1.22

Question: Which z-score does the source give for CCAACUCGGAUCAACUUAUTT against Nfia here?
Answer: inactive: 1.38

Question: Which z-score does the source give for CCUCAGUUAUAGAUGAUCUTT against Rdh11 here?
Answer: inactive: -0.618

Question: Which z-score does the source give for “GGAAAACCCUAGCACCAUGTT against A430093F15Rik” here?
Answer: inactive: -1.16

Question: For GGACACAUACUACACUAAGTT against Rent1, which z-score is on record?
Answer: inactive: 0.916

Question: With GCAGAUGCAAUUAUUACCCTT against Kcnmb1 as the sequence, how does the z-score read?
Answer: inactive: -0.00881

Question: With “CCAGAAGUCUUGCUGUCUGTT against 0710001E13Rik” as the sequence, how does the z-score read?
Answer: inactive: 0.432

Question: For GGGAGUUCUUGACCAAAUGTT against Katna1, which z-score is on record?
Answer: inactive: 0.469

Question: Which z-score does the source give for GAUAUGGAGGGCUAUGAUUTT against AI325464 here?
Answer: inactive: -1.38

Question: For “GGCAGAAACCAACCAACACTT against 2810410L24Rik”, which z-score is on record?
Answer: inactive: 0.765

Question: Which z-score does the source give for “GCUAUAGGCUUAAUGAAAATT against 4931406B18Rik” here?
Answer: inactive: -0.0731

Question: For GUAAAAGGAGAUGAAGACATT against Sly, which z-score is on record?
Answer: inactive: 1.12

Question: With GCACAAUUGGAAUUGUACATT against Ubqln2 as the sequence, how does the z-score read?
Answer: inactive: 0.825

Question: Which z-score does the source give for CCAGGGUAUGUAAAUAUCUTT against Epha8 here?
Answer: inactive: 1.22

Question: Which z-score does the source give for GGGUUGUUUACAGUGAUCUTT against BC049806 here?
Answer: inactive: -1.54

Question: With GGAGAAGAUCACAAGAGGGTT against Ugalt2 as the sequence, how does the z-score read?
Answer: inactive: -0.288

Question: For GGUCCACAAUGGCAUCAUATT against Elf4, which z-score is on record?
Answer: inactive: -0.197

Question: With GGCUUUGGUCAAGGAGAAGTT against Pias4 as the sequence, how does the z-score read?
Answer: inactive: -0.845

Question: For GGGAAGAGUGGUGCAAUGATT against Olfr155, which z-score is on record?
Answer: inactive: 0.39

Question: For GCGGAUCUCCCUAAGAAUUTT against Ctsz, which z-score is on record?
Answer: inactive: -0.935

Question: With GGGAAACACCUGGGUGCUUTT against Ctrl as the sequence, how does the z-score read?
Answer: inactive: 2.74

Question: Which z-score does the source give for CCCUUUAACAGCAAUUGUATT against Pramel5 here?
Answer: inactive: -1.56

Question: Which z-score does the source give for CGUCUAGGAUGUGAAGUUUTT against Rbp4 here?
Answer: inactive: -0.596

Question: With GAAAGUGAAACCAUUGCUGTT against Defb37 as the sequence, how does the z-score read?
Answer: inactive: -0.12

Question: Which z-score does the source give for GUAAAUAAAUCUGGUGGCATT against Rps25 here?
Answer: inactive: -2.18

Question: With “CCCAGGUGAGACCUUUACCTT against 1600019O04Rik” as the sequence, how does the z-score read?
Answer: inactive: 1.34

Question: Which z-score does the source give for GGUAGUGGAGACAGAGAAGTT against Rasgrf1 here?
Answer: inactive: -1.29

Question: With “GGCUUUGCUACUUGGGAUATT against 2810046M22Rik” as the sequence, how does the z-score read?
Answer: inactive: -1.31

Question: With “GGAAAGAAGCGAAUUACACTT against 1110034B05Rik” as the sequence, how does the z-score read?
Answer: inactive: -1.55
